These are yes or no findings as the source states them, for the method shown. Some binding calls cover weakened binding; strength is not graded here.
Columns and labels:
[1] = molecular target: Cys2 SP1 variant (aspen (Populus tremula)); assay: oligomer formation, SDS-PAGE
[2] = molecular target: Cys2 SP1 variant (aspen (Populus tremula)); assay: disulfide-linked subunits within the oligomer, SDS-PAGE
[3] = molecular target: Cys2 SP1 variant (aspen (Populus tremula)); assay: homo-oligomer complex formation, SDS-PAGE of unboiled samples
[4] = molecular target: Cys2 SP1 variant (aspen (Populus tremula)); assay: disulfide-linked dimer, SDS-PAGE with or without β-mercaptoethanol

Measured: binding

B1: Cys2 SP1 variant (protein)
chain: MCATRTPKLVKHTLLTRFKDEITREQIDNYINDYTNLLDLIPSMKSFNWGTDLGMESAELNRGYTHAFESTFESKSGLQEYLDSAALAAFAEGFLPTLSQRLVIDYFLY
binds: all assays above
